Results are given in words; binding and its absence hold for the method and conditions named. For part of these data: Binding seen in cells or lysates may run through a third protein. Some results given as binding are weak or reduced against the parent protein; the word gives no strength.

Sequences of proteins named here, by UniProt entry; tags and fusion partners are left off. Residues count along the entry.
UniProt Q14814: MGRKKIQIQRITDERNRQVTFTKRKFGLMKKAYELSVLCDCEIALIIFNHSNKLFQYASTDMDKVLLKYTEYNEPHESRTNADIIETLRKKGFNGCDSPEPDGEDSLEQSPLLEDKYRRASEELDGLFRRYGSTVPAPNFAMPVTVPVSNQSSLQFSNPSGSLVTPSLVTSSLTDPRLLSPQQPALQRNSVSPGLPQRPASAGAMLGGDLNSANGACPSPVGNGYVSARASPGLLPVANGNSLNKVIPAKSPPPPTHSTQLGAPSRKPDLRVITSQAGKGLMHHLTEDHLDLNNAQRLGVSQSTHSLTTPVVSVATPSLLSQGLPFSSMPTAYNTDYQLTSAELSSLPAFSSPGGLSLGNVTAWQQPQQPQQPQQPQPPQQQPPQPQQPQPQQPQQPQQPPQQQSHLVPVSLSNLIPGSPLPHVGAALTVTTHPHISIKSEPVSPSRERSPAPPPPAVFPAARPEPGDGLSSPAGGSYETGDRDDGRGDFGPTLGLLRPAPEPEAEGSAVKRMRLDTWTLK
VP16-CABIN1 peptide CB15 (2156-2220) (Q9Y6J0, residues 2156-2220): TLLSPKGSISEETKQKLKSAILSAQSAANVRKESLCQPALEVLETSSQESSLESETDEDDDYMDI
VP16-CABIN1 peptide: CB15 with 10 amino acids removed from the C-terminus (Q9Y6J0, residues 2156-2210): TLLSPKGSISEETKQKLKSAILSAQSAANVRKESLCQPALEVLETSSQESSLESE

Among the data in paper PMC12434140 are binding values, retold here.

For assay [1], the target named is myocyte enhancer factor 2D (MEF2D), wild type (UniProt Q14814). In words: co-IP; CB15 (or CB15 L2172A) and MEF2D or MEF2D fusion proteins co-transfected into HEK293T cells; immunoprecipitation assays.
The target in assay [2] is GAL4-MEF2D (UniProt Q14814). In words: two-hybrid; mammalian two-hybrid in HEK293T cells: pVP16-CABIN1 constructs with pGAL4-MEF2D under a Gal-promoter-luciferase reporter system (Promega); luciferase activity as read-out.

Turning to “CABIN1_15 (CB15, 2156-2220) (from UniProt Q9Y6J0 2156-2220) (domain or fragment)”, the binding entry in assay [1] is “binds”.
In the case of “VP16-CABIN1 peptide CB15 (2156-2220) (from UniProt Q9Y6J0 2156-2220) (domain or fragment)”, the binding result in assay [2] was “binds”.
The same measure, in the same setting: the entry for “VP16-CABIN1 peptide: CB15 with 10 amino acids removed from the C-terminus (from UniProt Q9Y6J0 2156-2210) (domain or fragment)” is “binds”.
